Results are given in words; binding and its absence hold for the method and conditions named. Some entries that bind do so weakly or less than the wild type. Tags and fused reporters may be left off the sequences shown.
Experiments:
[1] = target: T1, commercially available mammalian cell-expressed His-tagged rhMFG-E8 (R&D Systems, cat: 2767-MF) (human) (UniProt Q08431); assay: cell adhesion assay; wells pre-coated with different concentrations of rhMFG-E8; fluorescently labelled SVEC4-10 cells added; after washes the percentage of cells that remained bound to the plate was read on a fluorescence plate reader; also repeated with lyophilised protein stored at -20°C for up to 2 years; only the target purified
T1 sequence: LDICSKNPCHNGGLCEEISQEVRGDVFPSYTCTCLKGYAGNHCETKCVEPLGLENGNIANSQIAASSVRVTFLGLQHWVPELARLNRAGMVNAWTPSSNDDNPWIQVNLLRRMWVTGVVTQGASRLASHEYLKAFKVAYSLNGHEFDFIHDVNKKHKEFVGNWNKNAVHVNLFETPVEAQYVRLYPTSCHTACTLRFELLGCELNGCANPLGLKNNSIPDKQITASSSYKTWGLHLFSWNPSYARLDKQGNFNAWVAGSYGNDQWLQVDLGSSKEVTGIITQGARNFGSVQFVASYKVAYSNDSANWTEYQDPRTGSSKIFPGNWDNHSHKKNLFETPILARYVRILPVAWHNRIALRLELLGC

By UniProt entry, the sequences of proteins in these tests, tags left out. Where a name states a change or a piece, a line headed by the entry shows the natural chain unless it says otherwise.
UniProt P43406: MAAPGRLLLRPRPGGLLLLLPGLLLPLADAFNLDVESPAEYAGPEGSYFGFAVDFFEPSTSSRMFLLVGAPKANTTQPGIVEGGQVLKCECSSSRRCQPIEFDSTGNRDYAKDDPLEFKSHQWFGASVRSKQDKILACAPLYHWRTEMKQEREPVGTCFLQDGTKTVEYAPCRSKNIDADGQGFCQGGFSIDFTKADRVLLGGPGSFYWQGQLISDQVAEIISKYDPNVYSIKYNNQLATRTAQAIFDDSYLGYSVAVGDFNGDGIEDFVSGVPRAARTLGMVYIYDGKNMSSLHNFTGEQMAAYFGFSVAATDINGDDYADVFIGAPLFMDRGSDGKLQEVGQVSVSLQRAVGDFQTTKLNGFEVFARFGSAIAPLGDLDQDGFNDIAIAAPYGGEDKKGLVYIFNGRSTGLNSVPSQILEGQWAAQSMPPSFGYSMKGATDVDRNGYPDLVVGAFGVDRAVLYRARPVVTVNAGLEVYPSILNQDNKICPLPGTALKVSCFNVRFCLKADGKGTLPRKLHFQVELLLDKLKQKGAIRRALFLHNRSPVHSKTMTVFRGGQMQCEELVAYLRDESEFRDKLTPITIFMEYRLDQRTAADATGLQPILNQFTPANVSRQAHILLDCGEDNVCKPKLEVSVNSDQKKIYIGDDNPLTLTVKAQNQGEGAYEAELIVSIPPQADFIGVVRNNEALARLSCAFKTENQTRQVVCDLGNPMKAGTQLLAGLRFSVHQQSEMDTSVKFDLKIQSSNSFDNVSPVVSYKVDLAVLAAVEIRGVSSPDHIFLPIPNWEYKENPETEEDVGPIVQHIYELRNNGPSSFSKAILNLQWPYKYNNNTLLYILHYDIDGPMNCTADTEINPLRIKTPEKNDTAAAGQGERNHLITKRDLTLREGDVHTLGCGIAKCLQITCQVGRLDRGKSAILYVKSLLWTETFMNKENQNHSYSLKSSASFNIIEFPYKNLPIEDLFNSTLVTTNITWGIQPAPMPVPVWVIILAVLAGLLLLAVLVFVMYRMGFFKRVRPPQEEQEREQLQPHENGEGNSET

[2] = target: T2, human cell-expressed tag-free recombinant human MFG-E8 (rhMFG-E8) (human) (UniProt Q08431); assay: as above
T2 sequence: T1 sequence

binding [1]: binds | binding [2]: binds
Substance: αvβ3 integrin on the surface of mouse vascular endothelial cells SVEC4-10 (from UniProt P43406 31-1044; O54890 26-787) (receptor)
